The results in this text go back to patent US20090326047.

Amino acid sequences for entries named in this document (tags omitted). Residues count along the entry.
UniProt P19338, 2-710: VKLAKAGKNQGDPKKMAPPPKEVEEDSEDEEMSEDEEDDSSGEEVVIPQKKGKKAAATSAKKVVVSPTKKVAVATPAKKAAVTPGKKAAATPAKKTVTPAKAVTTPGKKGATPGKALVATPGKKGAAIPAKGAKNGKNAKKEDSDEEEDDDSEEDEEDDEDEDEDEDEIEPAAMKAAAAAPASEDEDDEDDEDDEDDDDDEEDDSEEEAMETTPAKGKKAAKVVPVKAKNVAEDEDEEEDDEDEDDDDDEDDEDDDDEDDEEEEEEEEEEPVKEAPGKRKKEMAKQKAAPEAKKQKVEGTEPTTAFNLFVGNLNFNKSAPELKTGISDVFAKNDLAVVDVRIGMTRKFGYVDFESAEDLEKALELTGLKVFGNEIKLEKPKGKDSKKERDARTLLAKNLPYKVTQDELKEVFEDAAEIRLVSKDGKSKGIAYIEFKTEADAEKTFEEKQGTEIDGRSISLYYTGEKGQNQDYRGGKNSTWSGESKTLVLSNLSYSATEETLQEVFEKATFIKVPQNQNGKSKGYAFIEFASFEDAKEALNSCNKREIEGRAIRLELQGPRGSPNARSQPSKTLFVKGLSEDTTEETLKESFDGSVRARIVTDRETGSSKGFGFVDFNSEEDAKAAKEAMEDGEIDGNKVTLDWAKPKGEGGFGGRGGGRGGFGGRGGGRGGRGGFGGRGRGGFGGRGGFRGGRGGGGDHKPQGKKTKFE

Data set [1] concerns the target nucleolin (106 kDa G-rich oligonucleotide binding protein, p106) (Homo sapiens) (UniProt P19338). Nature of the data set: EMSA. To be noted: protein in an extract, protein details: HeLa nuclear extract, Promega bandshift grade, label: 5'-32P (when used as probe). A general note: In EMSA bound probe runs differently from free probe, usually more slowly.
In data set [2] the target is nucleolin (approximately 116 kDa form + GRO-binding protein) (Homo sapiens) (UniProt P19338). As to the kind of experiment: competition with a labelled probe. The note with it: protein in an extract.
The target is the same in data set [3]. As to the kind of experiment: EMSA. To be noted: protein in an extract; label: 5'-32P (when used as probe); folded or branched DNA.
Data set [4] concerns the target nucleolin (116 kDa) (Homo sapiens) (UniProt P19338). As to the kind of experiment: pull-down. The note with it: cells treated with 5 uM biotinylated oligo 2 h, streptavidin capture, nucleolin antibody Western; protein in cells; protein details: endogenous, MDA-MB-231 cells; label: 5'-biotin; single-stranded DNA; variant of GRO15A.
In data set [5] the target is nucleolin (approximately 116 kDa form + GRO-binding protein) (Homo sapiens) (UniProt P19338). As to the kind of experiment: binding assay. To be noted: 3'-propylamine; Southwestern; approx. 116 kDa band coincides with nucleolin antibody band in nuclear, cytoplasmic and membrane extracts; protein in an extract; label: 5'-32P (when used as probe); single-stranded DNA.
Where [6] appears, read: 3'-propylamine, competes with TEL less effectively than GRO29A, 10-fold molar excess, single-stranded DNA.

Results from cells or extracts need not show a direct contact. For some assays here: A weaker result is weaker than the reference pair of the same experiment. For some assays here: For at least one entry, the source does not settle the construct or the ends of the probe.

Regarding TTTGGTGGTGGTGGTTGTGGTGGTGGTGG [GRO29A], the binding result is “binds” in data set [1] (3'-propylamine, intense complex, Southwestern 106 kDa band, competes TEL, 140 mM KCl, 2.5 mM MgCl2, folded or branched DNA) and “binds” in data set [2] (3'-propylamine, strong competition with labeled TEL at 10 nM, label: 5'-32P (when used as probe), folded or branched DNA). On to TTAGGGTTAGGGTTAGGGTTAGGG [TEL], for which the binding result in data set [1] (folded or branched DNA) and in data set [3] was “binds” in each case. In the case of GTTGTTTGGGGTGGT [5'-Biotin-GRO15A], the binding result in data set [4] is recorded as “binds”. Regarding GTTGTTTGGGGTGGT [GRO15A], the binding result is given as “binds” in data set [1] (3'-propylamine, single-stranded DNA) and “binds” in data set [5]. For the sequence TTTGGTGGTGGTGGTTGTGGTGGTGGTGG [29A-OH], the binding result in data set [2] (strong competition with labeled TEL at 10 nM, single-stranded DNA, variant of GRO29A) was “binds”.

In the case of TTTGGTGGTGGTGGTTGTGGTGGTGGTG [GRO28A], the binding result in data set [2] (setting [6]) is recorded as “binds more weakly”. On to GTTGTTTGGGGTGG [GRO14A], for which the binding result in data set [2] (setting [6]) is recorded as “binds more weakly”. On to GGTTGGGGTGGGTGGGGTGGGTGGG [GRO25A], for which the binding result in data set [2] (setting [6]) was “binds more weakly”.
